Laboratory results reported in article PMC4546648.
Results are given in words; binding and its absence hold for the method and conditions named. In cells and extracts the contact can be indirect. A result given as binding can be weak or reduced; the word gives no strength.

Biological target: His-tagged PLCγ1 cSH2 domain, purified from E. coli (UniProt P19174)
Test: pull-down; His-tagged cSH2 domains on Ni beads incubated overnight at 4°C with pre-cleared HEK293T lysate; western blot for endogenous PLCγ1; only the target purified

binding: binds
B1: PLCγ1, endogenous in HEK293T cells (enzyme, UniProt P19174 1-1290)
chain: MAGAASPCANGCGPGAPSDAEVLHLCRSLEVGTVMTLFYSKKSQRPERKTFQVKLETRQITWSRGADKIEGAIDIREIKEIRPGKTSRDFDRYQEDPAFRPDQSHCFVILYGMEFRLKTLSLQATSEDEVNMWIKGLTWLMEDTLQAPTPLQIERWLRKQFYSVDRNREDRISAKDLKNMLSQVNYRVPNMRFLRERLTDLEQRSGDITYGQFAQLYRSLMYSAQKTMDLPFLEASTLRAGERPELCRVSLPEFQQFLLDYQGELWAVDRLQVQEFMLSFLRDPLREIEEPYFFLDEFVTFLFSKENSVWNSQLDAVCPDTMNNPLSHYWISSSHNTYLTGDQFSSESSLEAYARCLRMGCRCIELDCWDGPDGMPVIYHGHTLTTKIKFSDVLHTIKEHAFVASEYPVILSIEDHCSIAQQRNMAQYFKKVLGDTLLTKPVEISADGLPSPNQLKRKILIKHKKLAEGSAYEEVPTSMMYSENDISNSIKNGILYLEDPVNHEWYPHYFVLTSSKIYYSEETSSDQGNEDEEEPKEVSSSTELHSNEKWFHGKLGAGRDGRHIAERLLTEYCIETGAPDGSFLVRESETFVGDYTLSFWRNGKVQHCRIHSRQDAGTPKFFLTDNLVFDSLYDLITHYQQVPLRCNEFEMRLSEPVPQTNAHESKEWYHASLTRAQAEHMLMRVPRDGAFLVRKRNEPNSYAISFRAEGKIKHCRVQQEGQTVMLGNSEFDSLVDLISYYEKHPLYRKMKLRYPINEEALEKIGTAEPDYGALYEGRNPGFYVEANPMPTFKCAVKALFDYKAQREDELTFIKSAIIQNVEKQEGGWWRGDYGGKKQLWFPSNYVEEMVNPVALEPEREHLDENSPLGDLLRGVLDVPACQIAIRPEGKNNRLFVFSISMASVAHWSLDVAADSQEELQDWVKKIREVAQTADARLTEGKIMERRKKIALELSELVVYCRPVPFDEEKIGTERACYRDMSSFPETKAEKYVNKAKGKKFLQYNRLQLSRIYPKGQRLDSSNYDPLPMWICGSQLVALNFQTPDKPMQMNQALFMTGRHCGYVLQPSTMRDEAFDPFDKSSLRGLEPCAISIEVLGARHLPKNGRGIVCPFVEIEVAGAEYDSTKQKTEFVVDNGLNPVWPAKPFHFQISNPEFAFLRFVVYEEDMFSDQNFLAQATFPVKGLKTGYRAVPLKNNYSEDLELASLLIKIDIFPAKENGDLSPFSGTSLRERGSDASGQLFHGRAREGSFESRYQQPFEDFRISQEHLADHFDSRERRAPRRTRVNGDNRL
